Experimental data taken from patent publication US20070148773.

Test system: IHF
Experiment: activity in cells
Conditions: IHF preincubated with attB/attP substrate stimulates wild-type Int intramolecular recombination (1.26% without IHF); intermolecular 13.94 vs 3.47%; purified recombinant protein

With “TCTGTTACAGGTCACTAATACCATCTAAGTAGTTGATTCATAGTGACTGCATATGTTGTGTTTTACAGTATTATGTAGTCTGTTTTTTATGCAAAATCTAATTTAATATATTGATATTTATATCATTTTACGTTTCTCGTTCAGCTTTTTTATACTAAGTTGGCATTATAAAAAAGCATTGCTTATCAATTTGTTGCAACGAACAGGTCACTATCAGTCAAAATAAAATCATTATTTGATTTC (double strand) [attP]” the functional effect was 7.93 % GFP+ cells.
